Data published in patent US20100316622A1, “DIAGNOSIS AND TREATMENT OF CARDIAC DISORDERS” (UNIVERSITY OF MIAMI, priority 2007, published 2010).
Some results were stated once for a whole list of compounds, not compound by compound.

Test system: NADPH oxidase (NOX)
Assay: NADPH oxidase dependent ONOO− production, APF fluorescence in heart homogenates
Format: biochemical, mouse
Details: NOS1−/− heart extracts
Protocol: NADPH oxidase dependent and XOR dependent ONOO— production: NADPH oxidase and XOR dependent ONOO— production was measured in heart homogenates using p-aminophenyl fluorescein (APF) as indicator. Proteins were diluted in modified Krebs-HEPES buffer and incubated with NADPH or xanthine for 30 minutes at 37° C. APF was added just before the fluorescence readings, measuring at 515 nm with excitation at 490 nm.

SMILES: O=[N+]([O-])OCC(CO[N+](=O)[O-])O[N+](=O)[O-] [nitroglycerin]
- concentration that decreased NOX-dependent peroxynitrite production: above 0.01 mmol/L
